The test system of this assay is HEK293A TEAD-LUC reporter. Description: TEAD-luciferase reporter activity (YAP activation), robust Z score vs plate; higher = stronger YAP/TEAD activation. The note with it: 24 h.

Structures are written as SMILES. Some of the results follow. Repeats in this data set agree poorly, so a single value says little.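 Human kidney-derived cells stably carry a construct in which eight TEAD-binding elements drive luciferase, measured by luminescence in a drug-repurposing library screen. A hit is any compound whose signal exceeds the plate mean by more than five robust Z scores.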

On to `CCCCn1c(=O)c2ncn(C)c2c2ccccc21`, for which the TEAD-luciferase reporter activity (compound concentration: 200 nM) is inactive: -0.196, the TEAD-luciferase reporter activity (compound concentration: 2 uM) is inactive: -0.342 and the TEAD-luciferase reporter activity (compound concentration: 10 uM) is inactive: 1.88.

Regarding `COC(=O)[C@H](CC(C)C)NC(=O)N1CCN(Cc2[nH]cnc2C)C(=O)[C@@H]1Cc1ccccc1`, the TEAD-luciferase reporter activity (compound concentration: 200 nM) is inactive: -0.277, the TEAD-luciferase reporter activity (compound concentration: 2 uM) was inactive: -2.04 and the TEAD-luciferase reporter activity (compound concentration: 10 uM) was inactive: -1.7.

On to `NC(=O)c1cn(Cc2c(F)cccc2F)nn1` [rufinamide (oral suspension)], for which the TEAD-luciferase reporter activity runs as follows: (compound concentration: 200 nM) inactive: -0.361; (compound concentration: 2 uM) inactive: 2.19; (compound concentration: 10 uM) inactive: 2.75.

Regarding `CC(C)(O)CC[C@@H](O)[C@](C)(O)[C@H]1CC[C@@]2(O)C3=CC(=O)[C@@H]4C[C@@H](O)[C@@H](O)C[C@]4(C)[C@H]3CC[C@]12C`, the TEAD-luciferase reporter activity reads like this: (compound concentration: 200 nM) inactive: -0.841; (compound concentration: 2 uM) inactive: 1.85; (compound concentration: 10 uM) inactive: -0.106.

On to `O=c1c(-c2ccc(O)cc2)coc2cc(O)ccc12` [Daidzein], for which the TEAD-luciferase reporter activity runs as follows: (compound concentration: 200 nM) inactive: 0.0957; (compound concentration: 10 uM) inactive: -0.441.

For `O=c1c(-c2ccc(O)cc2)coc2cc(O)ccc12` [4',7-Dihydroxyisoflava], the TEAD-luciferase reporter activity (compound concentration: 2 uM) was inactive: 0.634.

In the case of `Nc1c(Cl)cc(C(=O)NC[C@@H]2CCCN2)c2c1CCO2`, the TEAD-luciferase reporter activity runs as follows: (compound concentration: 200 nM) inactive: 3.27; (compound concentration: 2 uM) inactive: -1.52; (compound concentration: 10 uM) inactive: 0.297.

Regarding `CC(C)n1c(=O)n(C(=O)NCC2CCN(CC3(C(=O)O)CCC3)CC2)c2ccccc21`, the TEAD-luciferase reporter activity is inactive: 0.166 (compound concentration: 200 nM), inactive: -0.198 (compound concentration: 2 uM) and inactive: 1.19 (compound concentration: 10 uM).

Turning to `CC(C)(CC(=O)O)Cc1nc2cc(Cl)cnc2n1Cc1ccc(Cl)cc1`, the TEAD-luciferase reporter activity (compound concentration: 200 nM) is inactive: -1.44, the TEAD-luciferase reporter activity (compound concentration: 2 uM) is inactive: 0.498 and the TEAD-luciferase reporter activity (compound concentration: 10 uM) is inactive: -0.487.

Regarding `O=C(NC(Cc1cc(=O)[nH]c2ccccc12)C(=O)O)c1ccc(Cl)cc1` (centres undefined) [rebamipide (ophthalmic)], the TEAD-luciferase reporter activity is inactive: -3.12 (compound concentration: 200 nM), inactive: -1.55 (compound concentration: 2 uM) and inactive: 0.501 (compound concentration: 10 uM).

With `NC12CC3CC(CC(C3)C1)C2` [Symmetrel665-66-7], the TEAD-luciferase reporter activity (compound concentration: 200 nM) was inactive: 0.415 and the TEAD-luciferase reporter activity (compound concentration: 10 uM) was inactive: -0.613.

Regarding `Cc1ccccc1N1CCN(S(=O)(=O)C[C@]23CC[C@H](C[C@@H]2NC(=O)[C@@H](N)CCS(C)(=O)=O)C3(C)C)CC1`, the TEAD-luciferase reporter activity is inactive: -0.975 (compound concentration: 200 nM), inactive: 0.332 (compound concentration: 2 uM) and inactive: 1.28 (compound concentration: 10 uM).

With `CC[C@H](NC(=O)[C@H](C)NC)C(=O)N1C[C@@H](O)C[C@H]1Cc1c(-c2[nH]c3cc(F)ccc3c2C[C@@H]2C[C@H](O)CN2C(=O)[C@H](CC)NC(=O)[C@H](C)NC)[nH]c2cc(F)ccc12` [Birinapant], the TEAD-luciferase reporter activity by setting is: (compound concentration: 200 nM) inactive: -1.35; (compound concentration: 2 uM) inactive: 0.991; (compound concentration: 10 uM) inactive: 1.36.

As for `C[C@H]1C[C@H](N)CN1c1cc2c(cc1F)c(=O)c(C(=O)O)cn2-c1ccc(F)cc1F`, the TEAD-luciferase reporter activity (compound concentration: 200 nM) is inactive: 0.0797, the TEAD-luciferase reporter activity (compound concentration: 2 uM) was inactive: -0.75 and the TEAD-luciferase reporter activity (compound concentration: 10 uM) was inactive: 1.69.

For `O=C(CCNC(=O)OCc1ccccc1)NCCS(=O)(=O)[O-]` [Taurox SB], the TEAD-luciferase reporter activity reads like this: (compound concentration: 200 nM) inactive: 0.743; (compound concentration: 2 uM) inactive: -0.594; (compound concentration: 10 uM) inactive: -0.371.

With `COc1ccccc1CNCCCCCCNCCCCCCCCNCCCCCCNCc1ccccc1OC` [methoctramine], the TEAD-luciferase reporter activity runs as follows: (compound concentration: 200 nM) inactive: -1.23; (compound concentration: 10 uM) inactive: -1.26.

Regarding `OC[C@H]1O[C@@H](c2ccc(Cl)c(Cc3ccc(O[C@H]4CCOC4)cc3)c2)[C@H](O)[C@@H](O)[C@@H]1O` [Empagliflozin], the TEAD-luciferase reporter activity is, setting by setting: (compound concentration: 200 nM) inactive: 1.82; (compound concentration: 2 uM) inactive: -0.727; (compound concentration: 10 uM) inactive: -0.846.

In the case of `COc1ccc2c(c1)c(CC(=O)O)c(C)n2C(=O)c1cccnc1`, the TEAD-luciferase reporter activity (compound concentration: 200 nM) was inactive: -1.47, the TEAD-luciferase reporter activity (compound concentration: 2 uM) was inactive: 0.154 and the TEAD-luciferase reporter activity (compound concentration: 10 uM) was inactive: -0.203.

For the molecule `CN(C)CCCSc1c2ccccc2nn1Cc1ccccc1` [dazidamine], the TEAD-luciferase reporter activity was inactive: -1.66 (compound concentration: 200 nM), inactive: -1.73 (compound concentration: 2 uM) and inactive: 2.66 (compound concentration: 10 uM).

Turning to `c1ccc(-c2cc(OCCCN3CCN(c4ccccn4)CC3)nn2-c2ccccc2)cc1`, the TEAD-luciferase reporter activity reads like this: (compound concentration: 200 nM) inactive: 0.268; (compound concentration: 2 uM) inactive: -0.0238; (compound concentration: 10 uM) inactive: -0.506.

Turning to `O=S([O-])([O-])=S` [sodium thiosulfate], under “compound concentration: 2 uM”, the TEAD-luciferase reporter activity is inactive: -0.693.

In the case of `O=S([O-])([O-])=S`, the TEAD-luciferase reporter activity reads like this: (compound concentration: 200 nM) inactive: 0.948; (compound concentration: 2 uM) inactive: -1.24; (compound concentration: 10 uM) inactive: -0.307.

`CC(=O)c1ccccc1`: the TEAD-luciferase reporter activity runs as follows: (compound concentration: 200 nM) inactive: -1.26; (compound concentration: 2 uM) inactive: -1.01; (compound concentration: 10 uM) inactive: -1.92.

On to `C=CC1=C(C)C2=N/C/1=C\c1[nH]c(c(c1C)CC)/C=C/1\N=C3/C(=C/4\N/C(=C\2)/[C@@H](C)C4CCC(=O)O)/CC(=O)C3=C1C` (some centres undefined), for which the TEAD-luciferase reporter activity is, setting by setting: (compound concentration: 200 nM) inactive: -1.07; (compound concentration: 2 uM) inactive: -0.602; (compound concentration: 10 uM) inactive: 0.419.

For the molecule `CN1N=C(N)c2cn([C@@H]3O[C@H](COP(=O)(O)O)[C@@H](O)[C@H]3O)c3ncnc1c23` [triciribine phosphate], the TEAD-luciferase reporter activity (compound concentration: 200 nM) is inactive: -0.278, the TEAD-luciferase reporter activity (compound concentration: 2 uM) was inactive: -1.22 and the TEAD-luciferase reporter activity (compound concentration: 10 uM) was inactive: -1.36.

Turning to `CC(C)C(N)=O` [Isobutyramide], the TEAD-luciferase reporter activity is, setting by setting: (compound concentration: 200 nM) inactive: -0.532; (compound concentration: 2 uM) inactive: 0.919; (compound concentration: 10 uM) inactive: 0.248.

In the case of `COC[C@H](C)Oc1cc(Oc2cnc(C(=O)N3CCC3)cn2)cc(C(=O)Nc2ccn(C)n2)c1`, the TEAD-luciferase reporter activity is inactive: -0.199 (compound concentration: 200 nM), inactive: -1.35 (compound concentration: 2 uM) and inactive: 0.357 (compound concentration: 10 uM).

These data come from the supplement of paper PMC10735217.
